# Measured values taken from the supplement of paper PMC10338343.
# ± gives the standard deviation. The entries are a selection whose mix differs from that of the whole data set. The uncertainty is large for many entries.
# Tested on: MILI (PIWIL2) piRISC loaded with piRNA #2 (26 nt)
# Assay: pre-steady-state target cleavage rate (min^-1); MIWI and MILI are mouse PIWI proteins and EfPiwi is from a freshwater sponge; tags in brackets are library labels; higher = faster piRNA-guided slicing of the target
# Details: guide: piRNA #2 5'p-UUAGGUAACCCAGUAGAUCCAGAGGA; auxiliary factor: 500 nM mouse GTSF1
# Procedure: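 Cleave-'n-Seq: a library of target RNAs (target site embedded in constant flanks, ACAGCATTCCGCGTTAGTGATATCCG... 5' flank; DNA-blocked outside the site) at 0.1 nM was incubated with 1 nM active mouse MILI or MIWI piRISC (synthetic 5'-monophosphorylated piRNA guide) with or without 500 nM mouse GTSF1 at 33 °C for 1 min to 16 h. Uncleaved targets were sequenced and normalised to non-target controls, and the pooled three trials were fitted to a burst-and-steady-state model to give the pre-steady-state cleavage rate (min^-1; k3 is constrained to at most 1e-4). Sequence is the target site only; target names encode pairing extent (gX:gY) and contiguous / 1-mismatch / 2-mismatch / bulge geometry. Fits with R² ≤ 0 are excluded.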
row,Sequence,pre-steady-state target cleavage rate
1,CUUAAGGAGACCAAUCUACUGGGUUACCUAA,0.00112 ± 0.0082
2,CUUAAGGAGACGAUCUACUGCGUUACCUAA,0.00232 ± 0.003
3,CUUAAGGAGUGGAUCUACUGCGUUACCUUA,0.00273 ± 0.004
4,CUUAAGGAGUGGAUCUACUGGGUUACGAUA,0.00222 ± 0.0054
5,CUUAUCCUCUGGAUCACUGGGUUACCUAA,0.0129 ± 0.0061
6,CUUAAGGUCUGGAUGUACUCGGUUACCUAA,0.000529 ± 0.028
7,CUUAAGGAGACCUUCUACUGAGUUACCUAA,0.00119 ± 0.0074
8,CUUAUCCUCUGCAUCUACUCGGUUACCUAA,0.00261 ± 0.0038
9,CUUAAGGAGACGAUCUACUGGGUUACACUAA,0.000645 ± 0.013
10,CUUAAGGUCUGGAUCUACUGGUUACCUAA,0.00368 ± 0.0042
11,CUUAAGGACUCGAUCUACUGCGUUACCUAA,0.00118 ± 0.017
12,CUUAAGGAGAGGAUCUUCUGGGUUUCCUAA,0.00163 ± 0.0052
13,CUUAAGGAGACCUAGUCACUGGGUUACCUAA,0.000317 ± 0.024
14,CUUAAGGUCUGGAUCUACUGGGUUAGGUAA,0.000589 ± 0.018
15,CUUAAGGAGACGAUCGACUGGGUUACCUAA,0.00165 ± 0.0052
16,CUUAAGGAGACGAUCUACUGGGUCACCUAA,0.00118 ± 0.0079
17,CUUAAGGAGACGAUCAAGUGGGUUACCUAA,0.000352 ± 0.02
18,CUUAAGGAGACGAGCUACUGGGUUACCUAA,0.00112 ± 0.0073
19,CUUAAGCUCUGGAUCUACUGCGUUACGUAA,0.00207 ± 0.005
20,CUUAAGGAGAGGAUCUAGUGGGUUACCAAA,0.000516 ± 0.017
21,CUUAUCCUCUGGUUCUACUGGGUUACGUAA,0.634 ± 0.25
22,CUUAAGGAGACCUACUACUGGGGUUACCUAA,0.000324 ± 0.024
23,CUUAAGGAGACCUUCUACUGGUGUUACCUAA,0.00122 ± 0.0085
24,CUUAAGGUCUGCAUCUACUCGGUUACCUAA,0.00103 ± 0.015

# Reprinted from above for reference:
row,Sequence,pre-steady-state target cleavage rate
2,CUUAAGGAGACGAUCUACUGCGUUACCUAA,0.00232 ± 0.003
3,CUUAAGGAGUGGAUCUACUGCGUUACCUUA,0.00273 ± 0.004
4,CUUAAGGAGUGGAUCUACUGGGUUACGAUA,0.00222 ± 0.0054
5,CUUAUCCUCUGGAUCACUGGGUUACCUAA,0.0129 ± 0.0061
6,CUUAAGGUCUGGAUGUACUCGGUUACCUAA,0.000529 ± 0.028
7,CUUAAGGAGACCUUCUACUGAGUUACCUAA,0.00119 ± 0.0074
8,CUUAUCCUCUGCAUCUACUCGGUUACCUAA,0.00261 ± 0.0038
9,CUUAAGGAGACGAUCUACUGGGUUACACUAA,0.000645 ± 0.013
10,CUUAAGGUCUGGAUCUACUGGUUACCUAA,0.00368 ± 0.0042
11,CUUAAGGACUCGAUCUACUGCGUUACCUAA,0.00118 ± 0.017
12,CUUAAGGAGAGGAUCUUCUGGGUUUCCUAA,0.00163 ± 0.0052
13,CUUAAGGAGACCUAGUCACUGGGUUACCUAA,0.000317 ± 0.024
14,CUUAAGGUCUGGAUCUACUGGGUUAGGUAA,0.000589 ± 0.018
15,CUUAAGGAGACGAUCGACUGGGUUACCUAA,0.00165 ± 0.0052
16,CUUAAGGAGACGAUCUACUGGGUCACCUAA,0.00118 ± 0.0079
17,CUUAAGGAGACGAUCAAGUGGGUUACCUAA,0.000352 ± 0.02
18,CUUAAGGAGACGAGCUACUGGGUUACCUAA,0.00112 ± 0.0073
19,CUUAAGCUCUGGAUCUACUGCGUUACGUAA,0.00207 ± 0.005
20,CUUAAGGAGAGGAUCUAGUGGGUUACCAAA,0.000516 ± 0.017
21,CUUAUCCUCUGGUUCUACUGGGUUACGUAA,0.634 ± 0.25
22,CUUAAGGAGACCUACUACUGGGGUUACCUAA,0.000324 ± 0.024

# Later entries:

row,Sequence,pre-steady-state target cleavage rate
1,CUUAAGGAGACCUUCUUCUGGGUUACCUAA,0.00129 ± 0.0069
2,CUUAAGGAGACGAUCUACUGGGUCUACCUAA,0.00139 ± 0.0065
3,CUUAAGGAGAGAAUCUACUGGGUUACCUAA,0.00325 ± 0.0044
4,CUUAAGGAGACGAUCUACUGGGUUACCGUAA,0.0012 ± 0.011
5,CUUAUCCUCUGGUUCUACUGGGUUACCUUA,1.12 ± 0.39
6,CUUAUCCUCUGGAUCUACUCGGUUACCAAA,0.000883 ± 0.016
7,CUUAAGGAGACCAACUACUGGGUUAGCUAA,0.00032 ± 0.033
8,CUUAAGGAGUGCAUCUACUGCGUUACCUAA,0.000761 ± 0.018
9,CUUAAGGAGACCUACUACUGGGUUCACCUAA,0.000253 ± 0.027
10,CUUAACCUCUGGAUCUACUCCGUUACCUAA,0.00101 ± 0.011
11,CUUAAGGAGACGAUCUACUGGGUAACCUAA,0.00173 ± 0.0074
12,CUUAUCCUCUGGAUCUACUGGGGUUACCUAA,0.0435 ± 0.012
13,CUUAACCUCUGGAUCUUCUCGGUUACCUAA,0.00184 ± 0.0055
14,CUUAAGGUCUGGAUCUACUGGGUUUACCUAA,0.0618 ± 0.011
15,CUUAAGGAGACGAUCUUCUCGGUUACCUAA,0.00112 ± 0.0055
16,CUUAAGCUGUGGAUCUACUGCGUUACCUAA,0.00542 ± 0.0084
17,CUUAAGGAGACCAUCUACUCGGUUACCUAA,0.00115 ± 0.004
18,CUUAAGGUCUGCAUCUACUGCGUUACCUAA,0.00422 ± 0.0061
19,CUUAUCCUCUGGAUCUACUGGGUUCCUAA,0.239 ± 0.11
20,CUUAAGGAGACCAUAUACUGGGUUACCUAA,0.000474 ± 0.016
21,CUUAAGGAGACGAUGAUCUGGGUUACCUAA,0.0001 ± 0.059
22,CUUAUCCUCUGGAUCUACUGCCAAUGGAUA [g11:g26:cont:t1A],0.000413 ± 0.014
23,CUUAAGGAGUGGAUCUACUGGUUUACCUAA,0.00276 ± 0.0044
24,CUUAUCCUCUGGAUCUACUGCGAUACCUAA,0.00248 ± 0.0039

row,Sequence,pre-steady-state target cleavage rate
1,CUUAUCCACUGGAUCUACUCGGUUACCUAA,0.000839 ± 0.019
2,CUUAAGGAGACGAUCUACUGGGGUACCUAA,0.000733 ± 0.01
3,CUUAAGGAGUGGAUCUACUGGGUUAGCUAA,0.00262 ± 0.0054
4,CUUAAGGAGAGCAUCUACUGGGAUACCUAA,0.00141 ± 0.0076
5,CUUAAGGAGACCUACUACUCGGUUACCUUA,0.000345 ± 0.019
6,CUUAAGGAGAGGAUCUACUGGGUUUCCUUA,0.00198 ± 0.0045
7,CUUAAGGAGACCAUCUACUGGGUUACCCAA,0.000644 ± 0.018
8,CUUAAGGAGACCUGCUACUGGGUUACCUAA,0.000614 ± 0.014
9,CUUAAGGAGACCUACUACUGGGUUACCUA,0.000287 ± 0.034
10,CUUAAGGAGACCUUCUAUUGGGUUACCUAA,0.00155 ± 0.0071
11,CUUAAGGACAGGAUCUACUGGGUUAGCUAA,0.000732 ± 0.023
12,CUUAAGGAGUGGAUGUACUGGGUUACCUUA,0.0133 ± 0.015
13,CUUAAGGAGUGGAUCUACUGCGGUUACCUAA,0.000451 ± 0.0094
14,CUUAAGGAGUGGAUCUACUGGGUUAACUAA,0.000525 ± 0.024
15,CUUAAGGUCUGGAUCUACCUGGGUUACCUAA,0.000787 ± 0.008
16,CUUAAGCUCUGGAUCUACUCGGUAACCUAA,0.00031 ± 0.035
17,CUUAAGGACUGGAUCAACUGGGUUUCCUAA,0.00436 ± 0.0066
18,CUUAAGCUCUGGAUGUAGUGGGUUACCUAA,0.061 ± 0.011
19,CUUAAGGAGUGGAUCAUACUGGGUUACCUAA,0.000183 ± 0.021
20,CUUAAGGAGACCAUCUACACCGUUACCUAA,0.000388 ± 0.029
21,CUUAAGGAGACGAUCUACUGGGUUCACCUAA,0.00216 ± 0.0051
22,CUUAAGCCCUGGAUCUACUGGGUUACCUAA,0.202 ± 0.041
23,CUUAAGGAGACCUACAUCUGGGUUACCUAA,0.000283 ± 0.026
24,CUUAAGGAGACGAUCUACAGGCUUACCUAA,0.000295 ± 0.021
